Results reported in patent US10174067B2, “Type of cytidine derivative and application thereof” (priority 2014, dated 2019).
Some of these results come from one statement about several compounds together. For at least one compound, name, drawing or mass did not settle the structure.

Test system: HCT-116 colon cancer xenografts
Experiment: Tumor growth inhibition of HCT-116 colon cancer xenografts in tumor-bearing nude mice (tumor volume, TGI %, RTV, T/C %)
Type: in vivo, Balb/c Nude mice
Protocol: 4.1 Tumor cells: colon cancer HCT-116 cells, purchased from the Institute of Cell Biology, Chinese Academy of Sciences. The cells were incubated by F-12 medium (containing 10% FBS) in carbon dioxide incubator at 37° C. and in saturated humidity, with 5% CO2 and 95% air in volume fraction. Before inoculation, the cells at logarithmic phase were taken, and digested with 0.25% trypsin, washed once with PBS and resuspended in PBS for counting. The cells were resuspended in serum-free medium and adjusted to about 3×10^7 cell/mL.
The grouping is as follows:
The formations of tumor at the inoculation site of each group of nude mice were observed. The diameter of tumor nodule (D) was measured three times a week with round hole ruler, and the volume of tumor nodule (V) was calculated according to the following formula: […].
Anti-tumor activity was evaluated by tumor growth inhibition rate TGI (%) and relative tumor proliferation rate T/C (%).
The relative tumor volume (RTV) was calculated as: RTV=Vt/V0, where V0 was the tumor volume when they were grouped and administered, and Vt was the tumor volume at the time of measurement.
The relative proliferation rate T/C (%) was calculated as: […].
TRTV: RTV of the treatment group; CRTV: RTV of the control group.
P<0.05 was considered as significant difference.

O=C(Nc1ccn([C@@H]2O[C@H](CO)[C@@H](O)C2(F)F)c(=O)n1)OCc1ccc([N+](=O)[O-])cc1 [Compound G5, 4-N-(4-nitrocarboxybenzyl)-2′-deoxy-2′,2′-difluorocytidine]
TGI % on Day 24 (Day 24, G5 325 mg/kg, single IP): > 70%

O=C(Nc1ccn([C@@H]2O[C@H](CO)[C@@H](O)C2(F)F)c(=O)n1)OCc1ccccc1 [Compound G4, 4-N-(carboxybenzyl)-2′-deoxy-2′,2′-difluorocytidine]
Day 22 (TGI %) (Day 22, G3-G9 groups, single IP dose): > 70%
